This experiment is described as follows: qHTS Assay for Modulators of Lamin A Splicing. Particulars: HeLa LMNA splicing GFP/RFP minigene ratio, 48 h. A digest of the protocol:
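Read-out is the ratio of GFP to DsRed2 object intensity, acquired by 488 nm laser-scanning cytometry on HeLa lamin A-EGFP minigene reporter cells. Compound incubation 48 hrs at 37 °C in Opti-MEM with 2% FBS; DMSO 0.5% final.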
Background: In qHTS, concentration-response curves come from the screen itself.

Where [1] appears, read: measured here: RFP viability control channel.
The mark [2] stands for this setting: measured here: GFP splicing reporter channel.

The other results are listed elsewhere or left out. Shown are side measurements of this screen, not its main read-out; they come without a call. Most of these compounds were active or inconclusive in the main read-out, so they are no random draw. The note in brackets gives the kind of curve behind each potency; many fits are weak.

On to `O=C(Nc1sc2c(c1C(=O)O)CCCCC2)c1ccccc1F`, for which the AC50 under setting [1] was 0.708 µM [rising, single point].
As to `O=C(c1ccco1)c1cc2c(ccc3ccccc32)oc1=O`, the AC50 by setting is: under setting [2], 35.5 µM [rising, single point]; under setting [1], 0.251 µM [rising, single point].
As for `CCn1cc(C(=O)NCc2ccccc2Cl)cn1`, the concentration at half-maximal activity (AC50) runs as follows: under setting [2], 0.00447 µM [falling, full curve, poor fit]; under setting [1], 0.00501 µM [falling, full curve, poor fit].
For `COc1ccccc1NC(=O)CCc1nc(-c2ccccc2F)no1`, the AC50 is, setting by setting: under setting [2], 0.0126 µM [falling, full curve, poor fit]; under setting [1], 0.0562 µM [falling, full curve, poor fit].
With `O=C(Nc1ccncc1)c1ccc2c(c1)OCCO2`, the AC50 under setting [2] was 0.0794 µM [rising, full curve, poor fit].
In the case of `CCC(C)NC(=O)CSc1nc2ccccc2c(=O)n1-c1c(C)n(C)n(-c2ccccc2)c1=O` (configuration not stated), the AC50 under setting [1] is 0.178 µM [rising, full curve].
For the compound `Cc1cc(C)c(C#N)c(SCS(=O)c2ccc(C(C)(C)C)cc2)n1` (configuration not stated), the AC50 is 0.00447 µM [falling, full curve, poor fit] under setting [2] and 0.00355 µM [falling, full curve, poor fit] under setting [1].
With `COc1ccccc1CC(=O)Nc1ccc2nc(C)sc2c1`, under setting [1], the half-maximal activity concentration (AC50) was 35.5 µM [rising, single point].
Same read-out and setting: for `COCCCn1c(SCc2nnc(-c3ccc(OC)c(OC)c3)o2)nc2ccccc2c1=O` the value was 35.5 µM [rising, single point].
Take `Cc1nn(C(=O)c2ccccc2)c(C)c1S(=O)(=O)N1CCCCCC1`: the concentration at half-maximal activity (AC50) runs as follows: under setting [2], 0.794 µM [falling, full curve]; under setting [1], 0.631 µM [falling, full curve].
In the case of `COc1cccc(N2CCN(Cc3nc4scc(-c5ccccc5)c4c(=O)[nH]3)CC2)c1`, under setting [1], the AC50 was 3.98 µM [rising, full curve].
`COc1ccc(OCC(=O)Nc2cc(-c3nn(C)c(=O)c4ccccc34)ccc2OC)cc1`: the half-maximal activity concentration (AC50) is, setting by setting: under setting [2], 3.55 µM [rising, full curve]; under setting [1], 6.31 µM [rising, full curve].
`COc1ccccc1NC(=O)c1sc2ncn(Cc3ccccc3Cl)c(=O)c2c1C`: under setting [1], the AC50 was 0.0501 µM [falling, full curve, poor fit].
In the case of `CO[C@H]1/C=C/O[C@@]2(C)Oc3c(C)c(O)c4c(O)c(c5c(c4c3C2=O)NC2(CCN(CC(C)C)CC2)N=5)=NC(=O)/C(C)=C\C=C\[C@H](C)[C@H](O)[C@@H](C)[C@@H](O)[C@@H](C)[C@H](OC(C)=O)[C@@H]1C`, under setting [1], the half-maximal activity concentration (AC50) is 31.6 µM [rising, single point].
Turning to `O=c1[nH]c(Cc2ccccn2)nc2scc(-c3ccc(Cl)cc3)c12`, the half-maximal activity concentration (AC50) under setting [1] was 3.16 µM [rising, partial curve, poor fit].
On the same count and under the same terms, the result for `COc1ccc(NS(=O)(=O)c2ccc(NC(C)=O)cc2)c(OC)c1` reads 0.0708 µM [falling, full curve, poor fit]; that for `CN(Cc1nc(-c2cnccn2)no1)Cc1n[nH]c2c1CCCC2`, 0.0126 µM [rising, full curve]; that for `O=C(NC(=S)N1CCc2ccccc21)c1ccc(Br)o1`, 35.5 µM [falling, single point].
Still for that read-out and setting: for `Cc1ccc(S(=O)(=O)Oc2ccc(/C=N/NC(=O)c3nn(C)cc3[N+](=O)[O-])cc2)cc1` the value was 35.5 µM [rising, single point].
As for `COc1ccc(NC(=S)Nc2ccccn2)c(OC)c1`, the AC50 by setting is: under setting [2], 35.5 µM [falling, single point]; under setting [1], 35.5 µM [falling, single point].
For the compound `CC1=NC(Nc2nc(C)c3ccccc3n2)=NC(C)(C)C1`, the AC50 under setting [1] is 10 µM [rising, partial curve].
As for `CC1CCCCN1C(=O)c1ccc(COc2ccc([N+](=O)[O-])cc2)o1` (configuration not stated), the AC50 under setting [1] was 15.8 µM [rising, single point].
In the case of `CCOc1cc(C)cc2oc(=O)cc(-c3ccccc3)c12`, the AC50 under setting [2] was 35.5 µM [falling, single point].
`Cc1ccc(CNC(=O)COc2ccccc2-c2ccccc2)cc1`: the half-maximal activity concentration (AC50) under setting [1] is 35.5 µM [rising, single point].
With `Cc1cc2cc(CCNC(=O)c3cccs3)c(=O)[nH]c2cc1C`, the AC50 under setting [1] was 12.6 µM [rising, partial curve].
In the case of `CC1=NNC(=O)C1CCC(=O)N/N=C/C(Br)=C/c1ccccc1` (configuration not stated), the concentration at half-maximal activity (AC50) under setting [1] is 25.1 µM [rising, single point].
As to `CCOc1cc(/C=N/NC(=O)OC)ccc1OCCSc1ccc(Cl)cc1`, the concentration at half-maximal activity (AC50) under setting [2] was 6.31 µM [rising, partial curve] and the AC50 under setting [1] was 14.1 µM [rising, partial curve, poor fit].
On to `Cc1ccc(C)c(N2CCN(C(=O)CN3C(=O)c4ccccc4C3=O)CC2)c1`, for which the concentration at half-maximal activity (AC50) under setting [2] is 12.6 µM [rising, single point] and the AC50 under setting [1] is 31.6 µM [rising, single point].
Consider `CC1=C(C(=O)OC(C)C)C(C)C(C(=O)OC(C)C)=C(C)N1`, for which, under setting [1], the AC50 was 22.4 µM [rising, single point].
Same read-out and setting: the result for `COc1ccc(-n2ncc3c(N4CCCCC4)ncnc32)cc1` reads 10 µM [rising, partial curve, poor fit].
In the case of `COc1ccc(N2C(=O)CCC2=O)c(OC)c1`, under setting [2], the AC50 was 4.47 µM [rising, partial curve, poor fit].
As for `CC(=O)c1ccc(N2CCN(C(=O)c3ccc(Cn4c(=O)[nH]c5ccccc5c4=O)cc3)CC2)cc1`, the AC50 under setting [2] was 0.01 µM [falling, full curve, poor fit].
As to `CCOC(=O)C1CCN(C(=O)c2oc3ccc(S(=O)(=O)N4CC(C)CC(C)C4)cc3c2C)CC1` (configuration not stated), the AC50 under setting [1] was 20 µM [rising, single point].
Consider `CC1CCCN(C(=O)c2ccc3c(=O)n(Cc4ccc5c(c4)OCO5)c(=S)[nH]c3c2)C1` (configuration not stated), for which the half-maximal activity concentration (AC50) under setting [2] was 14.1 µM [rising, partial curve] and the AC50 under setting [1] is 12.6 µM [rising, partial curve].
Take `CCn1c(/C=C/N(C)c2ccccc2)[n+](CC)c2ccc(Cl)cc21`: the concentration at half-maximal activity (AC50) under setting [1] was 3.55 µM [rising, single point].
In the case of `CCC(CC)COC(=O)C(C#N)c1nc2ccccc2nc1N1CCOCC1` (configuration not stated), the AC50 is, setting by setting: under setting [2], 15.8 µM [rising, partial curve, poor fit]; under setting [1], 14.1 µM [rising, partial curve].

In general, AC50 refers to the concentration at which the activity in the assay is half-maximal.

The record behind these values is PubChem BioAssay AID1487 (National Center for Advancing Translational Sciences (NCATS), 2009).
